Data taken from the supplement of paper PMC7666118.
This is one part of the list.

Sequences of proteins named here, by UniProt entry; tags and fusion partners are left off. A change or cut given only in a name is not applied to a line headed by its entry.
UniProt P78362, whole entry, looked up: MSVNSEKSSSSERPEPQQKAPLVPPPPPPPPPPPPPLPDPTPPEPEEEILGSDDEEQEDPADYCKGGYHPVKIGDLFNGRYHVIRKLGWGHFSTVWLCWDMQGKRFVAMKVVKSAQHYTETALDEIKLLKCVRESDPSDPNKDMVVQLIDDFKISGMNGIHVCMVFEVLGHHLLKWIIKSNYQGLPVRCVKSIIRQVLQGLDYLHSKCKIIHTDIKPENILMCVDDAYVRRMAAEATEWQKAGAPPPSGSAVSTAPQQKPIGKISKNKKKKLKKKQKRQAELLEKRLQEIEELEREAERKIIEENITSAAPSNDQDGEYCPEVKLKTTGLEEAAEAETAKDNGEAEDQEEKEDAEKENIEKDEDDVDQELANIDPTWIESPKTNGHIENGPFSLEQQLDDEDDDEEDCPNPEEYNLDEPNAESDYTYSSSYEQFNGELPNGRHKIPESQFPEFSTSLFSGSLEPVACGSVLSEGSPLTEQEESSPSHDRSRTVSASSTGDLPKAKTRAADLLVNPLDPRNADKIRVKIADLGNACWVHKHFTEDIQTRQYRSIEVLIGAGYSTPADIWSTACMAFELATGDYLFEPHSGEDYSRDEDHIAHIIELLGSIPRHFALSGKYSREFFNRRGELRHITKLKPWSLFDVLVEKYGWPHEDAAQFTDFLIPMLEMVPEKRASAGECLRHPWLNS
UniProt Q9NZ72: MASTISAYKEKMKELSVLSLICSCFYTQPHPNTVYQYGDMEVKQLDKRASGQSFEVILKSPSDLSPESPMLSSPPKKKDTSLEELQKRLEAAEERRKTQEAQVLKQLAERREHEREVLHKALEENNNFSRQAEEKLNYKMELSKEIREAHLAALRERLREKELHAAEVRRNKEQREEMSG
UniProt O43805: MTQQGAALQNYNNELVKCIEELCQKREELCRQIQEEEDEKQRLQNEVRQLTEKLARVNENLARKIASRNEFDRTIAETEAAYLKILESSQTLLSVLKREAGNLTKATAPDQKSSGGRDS
UniProt P27105: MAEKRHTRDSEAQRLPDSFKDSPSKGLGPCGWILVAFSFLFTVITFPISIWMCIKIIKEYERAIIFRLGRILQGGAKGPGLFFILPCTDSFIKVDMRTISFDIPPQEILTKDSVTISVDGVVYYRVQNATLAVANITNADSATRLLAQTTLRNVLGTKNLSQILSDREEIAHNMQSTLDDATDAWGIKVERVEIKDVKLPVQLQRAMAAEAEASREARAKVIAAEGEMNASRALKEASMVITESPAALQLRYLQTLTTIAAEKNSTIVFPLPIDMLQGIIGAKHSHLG
UniProt O95149, whole entry: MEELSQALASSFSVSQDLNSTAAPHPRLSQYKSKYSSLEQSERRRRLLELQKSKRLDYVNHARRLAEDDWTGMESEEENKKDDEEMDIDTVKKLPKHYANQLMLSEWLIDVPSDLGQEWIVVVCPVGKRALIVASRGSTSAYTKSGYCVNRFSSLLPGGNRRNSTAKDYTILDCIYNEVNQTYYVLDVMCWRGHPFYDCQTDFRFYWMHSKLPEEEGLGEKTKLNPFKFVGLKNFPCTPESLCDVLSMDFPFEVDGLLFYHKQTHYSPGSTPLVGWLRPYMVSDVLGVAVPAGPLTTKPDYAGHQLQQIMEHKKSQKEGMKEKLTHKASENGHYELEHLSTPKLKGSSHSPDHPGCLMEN
UniProt Q8TDR2: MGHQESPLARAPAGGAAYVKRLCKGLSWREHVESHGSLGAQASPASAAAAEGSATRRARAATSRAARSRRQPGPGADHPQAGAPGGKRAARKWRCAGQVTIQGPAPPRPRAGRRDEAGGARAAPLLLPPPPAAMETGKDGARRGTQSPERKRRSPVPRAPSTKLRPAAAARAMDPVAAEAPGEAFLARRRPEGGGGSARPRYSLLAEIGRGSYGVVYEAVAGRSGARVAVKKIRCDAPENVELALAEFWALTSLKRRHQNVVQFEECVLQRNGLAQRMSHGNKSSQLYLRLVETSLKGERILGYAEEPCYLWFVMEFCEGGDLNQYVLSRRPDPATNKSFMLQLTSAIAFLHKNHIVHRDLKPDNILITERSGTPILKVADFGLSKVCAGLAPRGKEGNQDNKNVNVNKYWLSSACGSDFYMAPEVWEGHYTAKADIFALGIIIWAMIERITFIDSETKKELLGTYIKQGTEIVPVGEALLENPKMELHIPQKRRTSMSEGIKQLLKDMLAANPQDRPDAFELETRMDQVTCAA
UniProt Q8NBT2: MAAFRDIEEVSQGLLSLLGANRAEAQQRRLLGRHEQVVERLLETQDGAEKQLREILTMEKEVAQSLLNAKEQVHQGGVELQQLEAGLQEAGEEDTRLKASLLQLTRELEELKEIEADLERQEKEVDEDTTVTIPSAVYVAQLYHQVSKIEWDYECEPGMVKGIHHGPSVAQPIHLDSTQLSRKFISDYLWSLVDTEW
UniProt Q01082, whole entry: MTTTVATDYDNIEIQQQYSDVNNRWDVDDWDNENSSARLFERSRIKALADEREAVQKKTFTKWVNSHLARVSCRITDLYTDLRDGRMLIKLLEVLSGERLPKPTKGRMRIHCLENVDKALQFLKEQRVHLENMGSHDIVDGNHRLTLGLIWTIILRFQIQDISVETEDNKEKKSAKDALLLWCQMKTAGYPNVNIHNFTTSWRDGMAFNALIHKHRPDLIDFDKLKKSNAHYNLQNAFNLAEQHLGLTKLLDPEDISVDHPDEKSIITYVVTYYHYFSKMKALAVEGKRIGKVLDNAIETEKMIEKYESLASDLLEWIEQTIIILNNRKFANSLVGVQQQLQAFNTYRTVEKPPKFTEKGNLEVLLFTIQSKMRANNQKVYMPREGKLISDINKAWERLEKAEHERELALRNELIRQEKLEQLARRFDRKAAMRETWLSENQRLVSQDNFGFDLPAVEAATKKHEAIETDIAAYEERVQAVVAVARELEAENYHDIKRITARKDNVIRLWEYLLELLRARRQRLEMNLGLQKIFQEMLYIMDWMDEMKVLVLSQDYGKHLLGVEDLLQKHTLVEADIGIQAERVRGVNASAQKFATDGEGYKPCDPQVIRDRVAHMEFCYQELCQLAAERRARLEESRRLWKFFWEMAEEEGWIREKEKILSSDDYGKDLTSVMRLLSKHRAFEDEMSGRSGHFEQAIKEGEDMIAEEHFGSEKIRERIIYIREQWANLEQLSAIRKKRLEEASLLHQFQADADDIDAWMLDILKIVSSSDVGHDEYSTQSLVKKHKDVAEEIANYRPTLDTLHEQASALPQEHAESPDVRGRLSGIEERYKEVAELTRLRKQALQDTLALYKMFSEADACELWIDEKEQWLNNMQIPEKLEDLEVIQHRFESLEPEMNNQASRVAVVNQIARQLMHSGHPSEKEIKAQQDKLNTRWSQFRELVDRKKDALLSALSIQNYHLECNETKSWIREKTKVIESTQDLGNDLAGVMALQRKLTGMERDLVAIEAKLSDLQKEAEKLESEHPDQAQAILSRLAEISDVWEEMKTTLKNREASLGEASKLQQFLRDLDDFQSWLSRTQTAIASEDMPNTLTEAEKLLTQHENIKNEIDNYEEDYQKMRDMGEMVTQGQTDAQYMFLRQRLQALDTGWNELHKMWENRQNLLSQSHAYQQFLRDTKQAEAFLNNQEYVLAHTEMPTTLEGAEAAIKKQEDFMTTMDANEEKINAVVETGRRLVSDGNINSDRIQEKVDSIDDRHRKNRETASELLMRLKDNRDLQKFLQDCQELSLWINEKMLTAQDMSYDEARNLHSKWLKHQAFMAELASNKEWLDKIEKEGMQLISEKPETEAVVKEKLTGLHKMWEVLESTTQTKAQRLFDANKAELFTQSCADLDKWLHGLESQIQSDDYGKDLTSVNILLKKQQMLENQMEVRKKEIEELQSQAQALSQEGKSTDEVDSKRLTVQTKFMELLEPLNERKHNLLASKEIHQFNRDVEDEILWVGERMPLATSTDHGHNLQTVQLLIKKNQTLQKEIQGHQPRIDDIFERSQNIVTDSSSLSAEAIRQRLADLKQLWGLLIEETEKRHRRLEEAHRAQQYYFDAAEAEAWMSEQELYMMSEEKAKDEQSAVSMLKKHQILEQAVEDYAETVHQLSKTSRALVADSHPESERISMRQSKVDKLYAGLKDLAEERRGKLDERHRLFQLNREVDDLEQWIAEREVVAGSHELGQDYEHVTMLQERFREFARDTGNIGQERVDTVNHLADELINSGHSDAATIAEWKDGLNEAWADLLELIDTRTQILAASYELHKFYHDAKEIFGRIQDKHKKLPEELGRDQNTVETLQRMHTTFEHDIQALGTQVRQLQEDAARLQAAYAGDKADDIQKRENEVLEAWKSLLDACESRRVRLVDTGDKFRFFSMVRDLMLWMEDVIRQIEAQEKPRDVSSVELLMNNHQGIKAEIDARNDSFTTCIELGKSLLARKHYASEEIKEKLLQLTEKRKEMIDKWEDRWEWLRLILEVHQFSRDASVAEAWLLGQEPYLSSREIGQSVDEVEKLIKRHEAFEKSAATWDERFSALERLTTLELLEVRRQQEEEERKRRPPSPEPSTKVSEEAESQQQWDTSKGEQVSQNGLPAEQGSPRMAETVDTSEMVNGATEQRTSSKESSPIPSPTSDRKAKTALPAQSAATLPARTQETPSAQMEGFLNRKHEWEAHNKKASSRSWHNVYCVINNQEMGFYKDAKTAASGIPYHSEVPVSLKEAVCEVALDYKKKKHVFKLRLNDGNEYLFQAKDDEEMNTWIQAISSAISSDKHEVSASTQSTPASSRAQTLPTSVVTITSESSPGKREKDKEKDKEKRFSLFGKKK
UniProt Q9BVQ7: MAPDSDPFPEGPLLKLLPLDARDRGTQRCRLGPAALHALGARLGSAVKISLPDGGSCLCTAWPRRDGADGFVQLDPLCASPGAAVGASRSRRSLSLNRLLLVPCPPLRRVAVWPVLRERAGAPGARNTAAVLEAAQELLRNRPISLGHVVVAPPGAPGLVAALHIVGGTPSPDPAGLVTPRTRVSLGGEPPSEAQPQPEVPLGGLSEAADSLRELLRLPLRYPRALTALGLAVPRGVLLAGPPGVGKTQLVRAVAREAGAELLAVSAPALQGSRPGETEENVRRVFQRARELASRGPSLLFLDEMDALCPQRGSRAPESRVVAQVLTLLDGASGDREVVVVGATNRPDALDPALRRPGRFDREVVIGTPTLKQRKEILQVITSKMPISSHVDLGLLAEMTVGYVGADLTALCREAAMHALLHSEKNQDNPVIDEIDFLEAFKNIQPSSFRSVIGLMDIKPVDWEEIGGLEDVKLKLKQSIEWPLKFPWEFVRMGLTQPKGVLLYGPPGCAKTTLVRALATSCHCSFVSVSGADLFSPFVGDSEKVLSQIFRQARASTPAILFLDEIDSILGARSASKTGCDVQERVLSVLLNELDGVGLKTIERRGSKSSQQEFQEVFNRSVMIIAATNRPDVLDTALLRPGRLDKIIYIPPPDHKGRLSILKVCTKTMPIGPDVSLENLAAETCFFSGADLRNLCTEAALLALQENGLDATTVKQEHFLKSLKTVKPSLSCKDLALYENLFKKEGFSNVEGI

Compound: COc1ccc(Cn2ccc3ccc(C(=O)NO)cc32)cc1
Test: dose-dependent thermal stabilisation call (2D-TPP, DLPTP, 10% FDR) (binary (1 = stabilised)); higher = stabilised by the compound
Settings: system: HL-60 intact cells; concentration range 0.04-10 µM

| Target | dose-dependent thermal stabilisation call |
| --- | --- |
| SRPK2 (UniProt P78362) | inactive: 0 |
| STMN3 (UniProt Q9NZ72) | inactive: 0 |
| SSNA1 (UniProt O43805) | inactive: 0 |
| STOM (UniProt P27105) | inactive: 0 |
| SNUPN (UniProt O95149) | inactive: 0 |
| STK35 (UniProt Q8TDR2) | inactive: 0 |
| TACC3 (UniProt Q9Y6A5) | inactive: 0 |
| SPC24 (UniProt Q8NBT2) | inactive: 0 |
| SPI1 (UniProt P17947) | inactive: 0 |
| SPTBN1 (UniProt Q01082) | inactive: 0 |
| SPATA5L1 (UniProt Q9BVQ7) | inactive: 0 |

Two neighbouring entries out of the list so far, quoted:

| Target | dose-dependent thermal stabilisation call |
| --- | --- |
| SNUPN (UniProt O95149) | inactive: 0 |
| STK35 (UniProt Q8TDR2) | inactive: 0 |
